Literature values, collected in patent publication US20090053319A1 (priority 2007, published 2009).
Some of these results come from one statement about several compounds together. Some ranges recur; such a range may be that of the whole group of compounds.

Conditions: pure capsaicinoid; background statement
For `COc1cc(CNC(=O)CCCCCC(C)C)ccc1O` [Nordihydrocapsaicin], the “pungency (Scoville scale)” value is listed as 8,600,000-9,100,000 Scoville units. For `COc1cc(CNC(=O)CCCCC/C=C/C(C)C)ccc1O` [homocapsaicin, Homocapsaicin], the “pungency (Scoville scale)” value is given as 8,600,000-9,100,000 Scoville units. In the case of `COc1cc(CNC(=O)CCCCCCCC(C)C)ccc1O` [homodihydrocapsaicin, Homodihydrocapsaicin], the “pungency (Scoville scale)” value is listed as 8,600,000-9,100,000 Scoville units.
